{"source": "patent US12226427B2", "about": "“Treatment for gene reactivation” (YISSUM RESEARCH DEVELOPMENT COMPANY OF THE HEBREW …, priority 2018, dated 2025)", "tested_on": "FXS-NPCs", "experiment": "RNA sequencing (transcriptome) analysis of treated FXS-NPCs", "format": "cell-based, human", "details": "X chromosome genes unexpressed in untreated cells", "note": "Some results come without the dose or concentration used.", "data": [{"smiles": "Nc1ncn([C@H]2C[C@H](O)[C@@H](CO)O2)c(=O)n1", "note": "[5-azadC, 5-aza-2-deoxycytidine]", "values": [{"measurement": "Percentage of upregulated genes in genes that escape XCI versus genes that undergo XCI", "value": 2.33, "unit": "fold"}]}]}
